These results are taken from paper PMC8268110.

In test [1] the target is T1, Nrl1(1–502aa)-TAP (S. pombe) (UniProt O42975).
T1 sequence: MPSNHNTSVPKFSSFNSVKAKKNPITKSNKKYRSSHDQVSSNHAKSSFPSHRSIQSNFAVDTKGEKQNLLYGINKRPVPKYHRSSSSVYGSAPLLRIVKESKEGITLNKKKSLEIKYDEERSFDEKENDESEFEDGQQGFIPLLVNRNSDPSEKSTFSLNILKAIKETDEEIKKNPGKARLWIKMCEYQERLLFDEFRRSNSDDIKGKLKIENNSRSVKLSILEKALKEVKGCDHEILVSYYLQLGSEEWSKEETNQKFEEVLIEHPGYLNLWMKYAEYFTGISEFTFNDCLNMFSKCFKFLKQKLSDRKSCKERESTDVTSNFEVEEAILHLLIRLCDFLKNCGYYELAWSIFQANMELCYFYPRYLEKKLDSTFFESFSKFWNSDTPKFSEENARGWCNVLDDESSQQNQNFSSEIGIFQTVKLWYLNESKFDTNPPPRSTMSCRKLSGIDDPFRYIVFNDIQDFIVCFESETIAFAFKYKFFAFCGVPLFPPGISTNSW
Description: affinity purification with mass spectrometry; tandem affinity purification of TAP-tagged Nrl1 forms from S. pombe extracts (IgG Sepharose, TEV cleavage, Calmodulin Sepharose; IPP150 buffer: 50 mM Tris pH 8.0, 150 mM NaCl, 10% glycerol, 0.1% NP-40), eluates analysed by LC-MS/MS; proteins of the mock purification excluded.

Test [2] has as its target T2, Nrl1(1–159aa)-TAP (S. pombe) (UniProt O42975).
T2 sequence: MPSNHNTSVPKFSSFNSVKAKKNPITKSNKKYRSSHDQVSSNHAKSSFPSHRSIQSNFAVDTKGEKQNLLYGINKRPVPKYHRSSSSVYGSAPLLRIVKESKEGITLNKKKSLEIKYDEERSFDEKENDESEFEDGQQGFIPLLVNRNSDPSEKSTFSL
Described as above.

No constants are given. Whether binding was seen depends on the method and setting. In cells and extracts the contact can be indirect. These calls come from enrichment with a bait or labelling near it, and not all partners need be listed. For some of these results: A no says only that the protein was not detected with the bait.

Take “Utp14 (endogenous) (S. pombe (endogenous in S. pombe))”: the binding result in test [1] is listed as “binds weakly”.
Turning to “ATP-dependent RNA helicase Mtl1 (endogenous) (S. pombe (endogenous in S. pombe))”, the binding result in test [2] and in test [1] was “binds” throughout.
Take “Ntr2 (endogenous) (S. pombe (endogenous in S. pombe))”: the binding entry in test [2] is reported as “no binding”.
For “Ctr1 (endogenous) (S. pombe (endogenous in S. pombe))”, the binding entry in test [2] is given as “no binding”.

B1: Taf5 (endogenous) (protein, UniProt O13282 1-643)
chain: MSATNGPQPQDLNRIVLDYLAKKGYSRTEAMLRLEASGSGVSVEEKLKSIEETPDAYTHTYTILRDWVDSSLELYKAELHRILFPIFVHSYLNLLSQDHYEAAKQFYELFKDDHTDLHDFDVKNLKSLSLPSHVAEDRTAQQYRQNKYQLHFSRITFDLLLHFLFENVSNGGSIIIKLINQHIDIHIVPGRPTVLENAKVINEQEGITGQSFERGDAQLQPVKLQQMPMDKEMEKIVEMDLEEEDMMHQNDPNNQSPKLLKEFRKLHEPNAEDAPSRDYIPLPPHKGVDILSEVEAVKDWSKRLHLGPRASLPSVCMYTFHHTNNNMNCAEFSPDSTMIACGFQESYIRLWSIKADKKSLPKSTSVEDSDGSVRLLSHSGPVYGTTFSPDNKYLLSCSEDASARLWSVDTKTALVAYKGHTGPVWDVAFGPFGHYFATASHDQTAQLWSCDHIYPLRVFAGHLSDVDCVTFHPNSAYVLTGSSDKTCRLWDVHRGHSVRVFNGHTQPVTAVAIAPDGHTMASADSEGLIHLWDIGTGRRIKTMRGHRGNIYSLSFSRESTVLVSGGSDCTVRAWDVFKTNYNNPVSSSLTGSVVTPFSAKTSTFNEVNWSTSPDQMVALYTKQTPIFNVSFTRRNLCLAISVS
For B1, in test [1], the binding result is “binds weakly”.

B2: ubiquitin-protein ligase E4 Prp19 (endogenous) (protein, UniProt O14011 1-488)
chain: MFCSISGETPKEPVISRVSGNVYEKRLIEQVIRETSKDPVTQQECTLEDLVPVKVPDFVRPRPPSATSLPALLSLFQEEWDSVALEQFELRRNLTETKQELSTALYSLDAALRVISRLTKERDEAREALAKFSDNIGTVSSKTIEVQEVEMGESDDQLKTSLRSTVEKTFQELSSKRKRTKLQPKWATDDAVSQLLQATPSTILENLETESTTSFFPSPENSSFVLCLHKDELLCLDIQSNSTLKIFEGSALACCWLTSSKIAVATADAISIFEFPVSSSGLQSVGEPTSSIPIDEKVNFLQAHPSGEYLLAASNEKCYIFSLKSQVYNITVAQHITSLAVHPDGNLFVAGLENGELRFFETSSGNELTKFGPHSSPVKTLQFGENGYWLVVTTNDDSDIFIWDLRKSELVQKIPLQTKVAAVSLDITSQLLVSSDGETLYVHIYVKSSKSWRCMSQTHVSSISNLVWLNELHQLLFSTSNGAILRLG
For B2, the binding entry in test [2] is “no binding”; in test [1], “binds”.

B3: Nhp2 (endogenous) (protein, UniProt Q9P7H0 1-154)
chain: MAKDKKDHKHSGSTEDEYDSYLPALMPIAKPLAPKKLNKKMMKTVKKASKQKHILRGVKEVVKAVRKGEKGLVILAGDISPMDVISHIPVLCEDNNVPYLYTVSKELLGEASNTKRPTSCVMIVPGGKKKDMSKVEEYKESYEEIIKEVPALEV
On to B3, for which the binding result in test [1] is given as “binds weakly”.

B4: Taf6 (endogenous) (protein, UniProt O74462 1-452)
chain: MSLTVWNIESIKDVAEMLGIGNLADEPAAAIAMDLEYRIHQVVQEATKFMVHSKRTVLTSADISSALRTLNVEPLYGFNNSRPLEFHEAAVGAGQNSLYYLDDEEVDFEKIINAPLPKVPRNISYSAHWLAIEGVQPAIPQNPTPSDHTVGEWASKGTSGVMPGASTAAKEARNGVTSMDNVEIKPLVRHVLSKELQLYFERITSALLDETNVELRDAALSSLRDDPGLHQLLPYFIMFLSDSVTRNLGNLVVLTTLMHMAWALLDNPNLFVEPYVQQLMPSILTCLVAKRLGSDPNNHEHYALRDLAAFLLGIVCDRFGNVYYTLKPRVTRTALKAFLDNTKPYSTHYGAIKGLKTMGKEAIRVLVVPNIKVYEVLVRKTLEKGNEEEIYEANKCMDALYDALLLLRDDQLPNQRTLPPNASGLLEKNVGSLMAEKIMKENDTSLLLGLLE
With B4, the binding result in test [1] is given as “binds weakly”.

B5: Taf12 (endogenous) (protein, UniProt O13722 1-450)
chain: MNGQHSSPGTPVQRPSAGPVNQAQFSQQRTNQLTSLLHTMTMYQQLAQNVGLNTPQGQVYLLQAQTIRRQLQGHAQSGQLPNQQLLQQLQSNGALQQGTPEPSNTRPRPQLNAQEQTMLLVRHRQLQTAQNYLTEMKEALGRIKNELSTNERLDTSAREALVKQESELTVKIAQFTAAISNGIRSIQQLQNRQASSANGNNTGTSTPVNASTDTRKSTASTPQLQQTQAQANAPQQRINPETSSVPETPVGVSAANVSNESTELATSATQQSGLANNVEKSQTPSYMSANHLPKVDSKSPIPFSVPPSRATLTGGYASGSIGLSTPGLSRAPHYELDNGNRLLSKRKLHDLLQQIDSEEKIEPEVEELLLEIADEFVESVTNFACRLAKHRKSDTLDVRDVQLHLERNWNIRLPGFASDDIVKSARKTGPTPSYQQKQNAIGTAKSLNKD
Take B5: the binding entry in test [1] was “binds weakly”.

B6: Syf3 (endogenous) (protein, UniProt P87312 1-674)
chain: MTSEAPRVKNKNPAPIQISAEQLLREAVERQDVAFVPPKINITDLEELQEFQGRKRKEFEDAIRRNRLAMGHWMRYGQWELDQKEFARARSVFERALDVDSTYIPLWLKYIECEMKNRNINHARNLFDRAVTQLPRVDKLWYKYVYMEEMLGNITGCRQVFERWLKWEPDENCWMSYIRMERRYHENERARGIYERFVVVHPEVTNWLRWARFEEECGNAANVRQVYLAAIDALGQEFLNERFFIAFAKFEIRQKEYERARTIFKYAIDFMPRSKSMELYKEYTHFEKQFGDHLGVESTVLDKRRLQYEKLLKDSPYDYDTWLDLLKLEESAGDINTIRETYEKAIAKVPEVVEKNAWRRYVYIWLNYCLFEEIDVKDVDRARKVYQEALKLIPHKKFTFAKLWLMYAMFELRQRKIDVARKTLGRALGMCPKPKLFRGYIEFEDAIKQFDRCRILYEKWILYDPEACAPWLGYAALETKLGDSDRARALYNLAVNQPILETPELVWKAYIDFEFEEMEYGKARSIYQQLLRTAPHVKVWISFANFEIAHLEDDDEEPPNEEVASPTAVVRARNVFENALAHLRQQGLKEERVVLLEAWKQFEAMHGTEDTRKHVSSLMPQVVKKRRRLEDGSFEEYLDYLFPDTATDQGDKMRKMLELSRKWKEEMAKKKLEA
Consider B6, for which the binding entry in test [2] is listed as “no binding”.

B7: Taf9 (endogenous) (protein, UniProt Q09869 1-163)
chain: MSSPGISDESIKGPKDVRLIHLILSSLGVPSYSQTVPLQLLTFAHRYTQQLIQDSQVYAEHSRGQNAPISVEDVRLAVASQINHSFTGPPPKEFLLELAMERNRKPLPQIQPSYGFRLPPEKYCLTQPNWIVSNETQQNQPKEENSSDSRMEEDKLDFSVKSE
As to B7, in test [1], the binding result is given as “binds weakly”.
